# Measured values taken from publication doi:10.1101/2025.10.09.681391.
# Chains of the proteins cited; added tags and fusions are not shown. Lines headed by an entry give the natural chain unless they say otherwise; changes in a name come on top. A line that says so, or that is headed by a name, gives the form on record, which may keep a tag or linker. Residues count along the entry.
# UniProt P46531: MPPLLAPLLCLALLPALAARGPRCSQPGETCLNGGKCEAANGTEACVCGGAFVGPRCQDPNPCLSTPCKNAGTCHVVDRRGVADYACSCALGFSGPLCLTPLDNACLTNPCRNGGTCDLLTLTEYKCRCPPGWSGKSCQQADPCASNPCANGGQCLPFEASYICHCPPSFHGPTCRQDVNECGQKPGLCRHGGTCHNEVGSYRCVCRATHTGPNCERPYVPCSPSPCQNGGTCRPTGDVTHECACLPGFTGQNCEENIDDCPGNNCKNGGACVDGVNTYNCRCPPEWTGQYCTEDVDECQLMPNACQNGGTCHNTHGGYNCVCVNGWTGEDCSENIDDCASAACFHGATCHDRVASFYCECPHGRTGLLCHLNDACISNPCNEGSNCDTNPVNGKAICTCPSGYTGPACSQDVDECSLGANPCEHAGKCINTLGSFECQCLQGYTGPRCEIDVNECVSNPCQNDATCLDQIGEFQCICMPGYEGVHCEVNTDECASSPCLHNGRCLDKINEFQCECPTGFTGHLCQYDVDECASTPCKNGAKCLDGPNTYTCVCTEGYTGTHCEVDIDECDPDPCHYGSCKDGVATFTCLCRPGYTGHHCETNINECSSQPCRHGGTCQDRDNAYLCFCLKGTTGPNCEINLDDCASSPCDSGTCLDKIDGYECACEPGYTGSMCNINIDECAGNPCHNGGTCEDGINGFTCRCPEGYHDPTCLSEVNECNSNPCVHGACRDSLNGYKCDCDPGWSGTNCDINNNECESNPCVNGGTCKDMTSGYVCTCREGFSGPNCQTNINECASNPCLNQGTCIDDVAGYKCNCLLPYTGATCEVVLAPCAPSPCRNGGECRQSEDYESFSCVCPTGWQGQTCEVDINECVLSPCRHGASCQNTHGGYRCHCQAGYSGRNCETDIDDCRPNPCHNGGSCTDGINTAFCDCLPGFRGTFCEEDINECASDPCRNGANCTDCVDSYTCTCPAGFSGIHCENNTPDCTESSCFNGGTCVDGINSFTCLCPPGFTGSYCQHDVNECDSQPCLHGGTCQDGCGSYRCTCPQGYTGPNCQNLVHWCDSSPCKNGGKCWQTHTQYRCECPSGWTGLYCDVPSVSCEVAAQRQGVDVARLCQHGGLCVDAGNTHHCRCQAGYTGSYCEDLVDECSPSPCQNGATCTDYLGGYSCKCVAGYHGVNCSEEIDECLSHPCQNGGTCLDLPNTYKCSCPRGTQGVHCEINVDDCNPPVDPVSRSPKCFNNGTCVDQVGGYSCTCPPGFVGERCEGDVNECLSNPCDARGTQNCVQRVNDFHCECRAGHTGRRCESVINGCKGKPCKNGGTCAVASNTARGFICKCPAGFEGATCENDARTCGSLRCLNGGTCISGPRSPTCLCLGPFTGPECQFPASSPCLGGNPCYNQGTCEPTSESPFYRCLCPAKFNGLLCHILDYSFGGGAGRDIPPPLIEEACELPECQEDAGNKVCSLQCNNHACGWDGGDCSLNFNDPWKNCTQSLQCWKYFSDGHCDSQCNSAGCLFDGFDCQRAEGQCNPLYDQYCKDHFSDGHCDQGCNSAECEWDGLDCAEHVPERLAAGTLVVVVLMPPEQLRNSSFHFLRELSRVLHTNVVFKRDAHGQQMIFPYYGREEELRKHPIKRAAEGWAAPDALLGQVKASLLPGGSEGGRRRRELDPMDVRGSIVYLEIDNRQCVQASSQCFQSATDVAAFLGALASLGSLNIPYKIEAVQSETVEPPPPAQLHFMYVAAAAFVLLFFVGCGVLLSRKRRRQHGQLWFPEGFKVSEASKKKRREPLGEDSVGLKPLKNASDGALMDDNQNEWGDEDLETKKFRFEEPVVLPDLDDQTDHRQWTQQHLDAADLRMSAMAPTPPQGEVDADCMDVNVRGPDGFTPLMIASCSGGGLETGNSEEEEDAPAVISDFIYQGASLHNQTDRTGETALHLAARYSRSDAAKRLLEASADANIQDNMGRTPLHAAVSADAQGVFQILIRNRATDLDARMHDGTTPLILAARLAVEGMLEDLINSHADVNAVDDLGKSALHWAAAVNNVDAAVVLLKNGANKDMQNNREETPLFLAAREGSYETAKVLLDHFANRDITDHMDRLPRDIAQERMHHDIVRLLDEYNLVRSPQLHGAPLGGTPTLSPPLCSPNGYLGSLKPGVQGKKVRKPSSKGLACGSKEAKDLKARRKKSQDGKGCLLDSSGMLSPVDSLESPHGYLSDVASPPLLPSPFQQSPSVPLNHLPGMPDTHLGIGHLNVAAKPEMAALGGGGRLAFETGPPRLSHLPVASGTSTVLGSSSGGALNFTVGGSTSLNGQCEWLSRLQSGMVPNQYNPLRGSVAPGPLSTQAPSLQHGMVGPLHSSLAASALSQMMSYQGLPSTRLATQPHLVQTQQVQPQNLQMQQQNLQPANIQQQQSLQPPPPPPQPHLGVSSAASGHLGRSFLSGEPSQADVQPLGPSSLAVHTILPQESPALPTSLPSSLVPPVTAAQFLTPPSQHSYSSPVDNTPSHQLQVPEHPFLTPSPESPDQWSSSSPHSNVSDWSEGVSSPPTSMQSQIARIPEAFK
# NICD1 (804 aa) tagged with 1xFLAG: residues 1753-2555 of P46531
# UniProt Q04721, residues 26-1677: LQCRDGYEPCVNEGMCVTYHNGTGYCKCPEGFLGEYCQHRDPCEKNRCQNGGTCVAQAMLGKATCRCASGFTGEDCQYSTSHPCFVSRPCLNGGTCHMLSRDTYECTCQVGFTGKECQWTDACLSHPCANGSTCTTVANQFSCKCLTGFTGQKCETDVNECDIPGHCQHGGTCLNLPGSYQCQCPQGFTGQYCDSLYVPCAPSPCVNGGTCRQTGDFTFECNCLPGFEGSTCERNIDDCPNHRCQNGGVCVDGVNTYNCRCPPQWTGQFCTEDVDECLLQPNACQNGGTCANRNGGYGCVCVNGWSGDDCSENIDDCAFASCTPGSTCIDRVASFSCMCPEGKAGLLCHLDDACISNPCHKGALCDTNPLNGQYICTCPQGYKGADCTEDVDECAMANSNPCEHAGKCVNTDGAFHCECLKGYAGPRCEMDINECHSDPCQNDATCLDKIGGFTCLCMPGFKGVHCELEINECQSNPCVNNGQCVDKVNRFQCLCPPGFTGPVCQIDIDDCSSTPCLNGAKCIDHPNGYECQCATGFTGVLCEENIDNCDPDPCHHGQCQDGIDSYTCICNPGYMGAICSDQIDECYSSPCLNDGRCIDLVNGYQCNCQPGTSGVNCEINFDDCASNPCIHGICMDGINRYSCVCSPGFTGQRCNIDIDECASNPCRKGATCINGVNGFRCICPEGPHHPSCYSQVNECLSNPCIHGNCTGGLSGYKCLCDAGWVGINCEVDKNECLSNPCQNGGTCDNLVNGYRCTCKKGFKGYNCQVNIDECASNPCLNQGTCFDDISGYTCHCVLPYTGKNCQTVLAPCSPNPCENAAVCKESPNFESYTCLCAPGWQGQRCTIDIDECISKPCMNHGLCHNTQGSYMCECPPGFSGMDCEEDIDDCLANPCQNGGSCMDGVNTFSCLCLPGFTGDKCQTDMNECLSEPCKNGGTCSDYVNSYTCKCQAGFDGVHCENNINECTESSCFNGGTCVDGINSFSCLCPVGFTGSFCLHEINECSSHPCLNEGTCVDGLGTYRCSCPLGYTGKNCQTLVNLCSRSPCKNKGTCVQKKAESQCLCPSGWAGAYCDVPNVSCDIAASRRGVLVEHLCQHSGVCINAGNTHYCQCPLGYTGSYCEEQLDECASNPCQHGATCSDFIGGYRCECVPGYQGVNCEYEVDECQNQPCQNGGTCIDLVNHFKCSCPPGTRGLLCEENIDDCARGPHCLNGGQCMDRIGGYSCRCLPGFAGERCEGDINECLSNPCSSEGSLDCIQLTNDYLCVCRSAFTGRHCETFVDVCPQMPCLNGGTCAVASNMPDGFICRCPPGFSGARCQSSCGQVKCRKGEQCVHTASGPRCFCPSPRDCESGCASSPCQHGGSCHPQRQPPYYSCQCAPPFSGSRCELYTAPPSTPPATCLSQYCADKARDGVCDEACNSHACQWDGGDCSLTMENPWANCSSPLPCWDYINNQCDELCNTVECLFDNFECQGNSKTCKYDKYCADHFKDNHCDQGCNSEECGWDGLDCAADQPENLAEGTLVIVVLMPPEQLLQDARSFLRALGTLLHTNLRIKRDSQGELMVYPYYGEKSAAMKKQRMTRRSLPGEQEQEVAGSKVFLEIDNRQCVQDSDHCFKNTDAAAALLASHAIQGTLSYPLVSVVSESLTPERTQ
# PAX6(b)-GFP (P26367-2, form named): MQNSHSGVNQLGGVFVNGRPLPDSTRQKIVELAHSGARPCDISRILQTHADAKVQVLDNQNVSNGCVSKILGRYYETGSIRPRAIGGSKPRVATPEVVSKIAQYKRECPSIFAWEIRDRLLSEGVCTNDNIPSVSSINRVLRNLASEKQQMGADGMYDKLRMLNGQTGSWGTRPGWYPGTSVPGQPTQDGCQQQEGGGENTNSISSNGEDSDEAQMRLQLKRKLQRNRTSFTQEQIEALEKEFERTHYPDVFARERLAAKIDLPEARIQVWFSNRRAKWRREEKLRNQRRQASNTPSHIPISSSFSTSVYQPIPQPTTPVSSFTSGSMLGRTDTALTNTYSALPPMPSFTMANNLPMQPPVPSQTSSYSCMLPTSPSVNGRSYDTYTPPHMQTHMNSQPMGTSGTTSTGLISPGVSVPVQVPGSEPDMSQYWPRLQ
# Results are given in words; binding and its absence hold for the method and conditions named. Binding seen in cells or lysates may run through a third protein. Some results given as binding are weak or reduced against the parent protein; the word gives no strength.
# Key:
# [1] = molecular target: T1, full-length human CNTN6-3xHA (human) (UniProt Q9UQ52); assay: co-IP
# T1 sequence: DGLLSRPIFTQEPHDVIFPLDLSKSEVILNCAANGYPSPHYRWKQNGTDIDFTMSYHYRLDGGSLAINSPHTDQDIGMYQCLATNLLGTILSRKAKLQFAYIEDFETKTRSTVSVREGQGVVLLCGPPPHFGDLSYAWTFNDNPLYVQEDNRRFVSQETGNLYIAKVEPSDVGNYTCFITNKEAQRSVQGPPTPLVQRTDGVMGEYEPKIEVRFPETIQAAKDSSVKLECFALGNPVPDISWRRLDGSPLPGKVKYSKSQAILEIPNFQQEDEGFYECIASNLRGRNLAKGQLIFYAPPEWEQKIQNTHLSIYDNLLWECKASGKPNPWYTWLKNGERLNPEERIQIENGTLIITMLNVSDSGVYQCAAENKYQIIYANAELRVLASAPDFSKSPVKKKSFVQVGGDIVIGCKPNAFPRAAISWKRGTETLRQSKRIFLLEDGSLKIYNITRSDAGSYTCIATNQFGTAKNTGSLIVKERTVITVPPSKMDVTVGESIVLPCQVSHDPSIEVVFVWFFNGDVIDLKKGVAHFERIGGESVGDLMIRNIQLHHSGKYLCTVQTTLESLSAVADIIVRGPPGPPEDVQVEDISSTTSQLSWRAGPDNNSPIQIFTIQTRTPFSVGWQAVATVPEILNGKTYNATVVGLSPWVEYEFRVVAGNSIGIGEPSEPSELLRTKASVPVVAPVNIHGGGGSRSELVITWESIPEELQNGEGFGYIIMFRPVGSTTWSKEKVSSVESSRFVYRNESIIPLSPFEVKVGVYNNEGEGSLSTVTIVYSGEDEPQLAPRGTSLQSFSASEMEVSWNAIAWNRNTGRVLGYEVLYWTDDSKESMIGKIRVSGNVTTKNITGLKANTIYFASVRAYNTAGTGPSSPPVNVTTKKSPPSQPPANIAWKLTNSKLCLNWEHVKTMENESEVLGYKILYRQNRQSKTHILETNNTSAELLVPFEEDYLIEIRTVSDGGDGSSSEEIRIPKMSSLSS
# [2] = molecular target: NICD1 (804 aa) tagged with 1xFLAG (human) (UniProt P46531); assay: co-IP
Substance,binding [1],binding [2]
FLAG-tagged NOTCH1 extracellular domain (from UniProt P46531 19-1796) (domain or fragment),binds,–
FLAG-tagged NOTCH2 extracellular domain (from UniProt Q04721 26-1677) (domain or fragment),binds,–
PAX6(a)-GFP (from UniProt P26367-1 1-422),–,binds
PAX6(b)-GFP (from UniProt P26367-2 1-436),–,binds
